This passage reports binding results from PMC10935238.

Amino acid sequences for entries named in this document (tags omitted).
UniProt Q07157: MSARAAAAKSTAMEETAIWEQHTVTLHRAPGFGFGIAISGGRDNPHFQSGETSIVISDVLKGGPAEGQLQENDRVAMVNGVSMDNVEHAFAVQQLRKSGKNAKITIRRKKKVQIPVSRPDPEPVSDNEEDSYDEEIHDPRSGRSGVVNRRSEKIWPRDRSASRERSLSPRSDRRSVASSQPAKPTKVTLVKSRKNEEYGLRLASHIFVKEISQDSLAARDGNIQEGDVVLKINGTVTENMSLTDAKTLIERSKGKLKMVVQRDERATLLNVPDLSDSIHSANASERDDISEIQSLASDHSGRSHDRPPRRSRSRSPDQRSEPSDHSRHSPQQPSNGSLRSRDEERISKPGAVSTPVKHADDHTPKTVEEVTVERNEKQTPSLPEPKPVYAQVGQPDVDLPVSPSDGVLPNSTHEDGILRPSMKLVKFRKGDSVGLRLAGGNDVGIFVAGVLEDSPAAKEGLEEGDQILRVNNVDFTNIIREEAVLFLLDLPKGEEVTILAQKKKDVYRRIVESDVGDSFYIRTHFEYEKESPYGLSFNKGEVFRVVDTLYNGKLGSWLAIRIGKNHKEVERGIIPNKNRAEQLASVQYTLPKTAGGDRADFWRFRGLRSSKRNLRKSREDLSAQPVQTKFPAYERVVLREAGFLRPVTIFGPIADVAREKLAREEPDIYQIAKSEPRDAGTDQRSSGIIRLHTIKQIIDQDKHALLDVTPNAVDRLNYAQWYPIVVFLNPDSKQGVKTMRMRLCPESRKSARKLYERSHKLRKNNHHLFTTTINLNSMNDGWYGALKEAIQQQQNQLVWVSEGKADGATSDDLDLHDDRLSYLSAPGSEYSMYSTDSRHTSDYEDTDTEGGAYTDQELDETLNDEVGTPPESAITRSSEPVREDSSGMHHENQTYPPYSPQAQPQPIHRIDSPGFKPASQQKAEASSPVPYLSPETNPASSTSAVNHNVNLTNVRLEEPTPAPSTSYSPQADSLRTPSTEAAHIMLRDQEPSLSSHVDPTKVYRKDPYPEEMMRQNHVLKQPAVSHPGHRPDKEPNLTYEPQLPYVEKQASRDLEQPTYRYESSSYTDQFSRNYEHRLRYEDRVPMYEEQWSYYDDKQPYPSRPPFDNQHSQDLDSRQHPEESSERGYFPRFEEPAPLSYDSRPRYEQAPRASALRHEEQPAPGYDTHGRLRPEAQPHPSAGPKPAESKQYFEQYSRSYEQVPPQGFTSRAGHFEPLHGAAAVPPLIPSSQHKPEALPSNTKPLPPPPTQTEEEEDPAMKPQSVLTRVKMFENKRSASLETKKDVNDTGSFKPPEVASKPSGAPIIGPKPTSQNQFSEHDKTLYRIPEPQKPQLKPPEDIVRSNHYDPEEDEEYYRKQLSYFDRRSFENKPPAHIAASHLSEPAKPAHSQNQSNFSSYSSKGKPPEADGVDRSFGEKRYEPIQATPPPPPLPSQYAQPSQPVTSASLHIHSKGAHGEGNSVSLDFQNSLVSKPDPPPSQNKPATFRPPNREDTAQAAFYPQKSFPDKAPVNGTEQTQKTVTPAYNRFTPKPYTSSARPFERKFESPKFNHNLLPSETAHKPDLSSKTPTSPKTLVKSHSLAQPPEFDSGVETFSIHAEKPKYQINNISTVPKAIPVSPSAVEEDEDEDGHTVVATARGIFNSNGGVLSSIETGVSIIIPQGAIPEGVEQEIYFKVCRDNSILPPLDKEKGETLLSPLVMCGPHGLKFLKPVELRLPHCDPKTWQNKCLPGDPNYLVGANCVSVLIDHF

Experiment [1] concerns the target T1, tridecapeptide (P0) … fused with GFP.
T1 sequence: RASSRPRPDDLEI
The experiment in a line: co-IP; cell lysates incubated overnight at 4 °C with agarose beads coated with a GFP antibody; beads rinsed five times; immunoblot for ZO-1.

The target of experiment [2] is T2, biotin-modified Cx43-derived tridecapeptide P1: (biotin-Lys) ….
T2 sequence (peptide, biotin on the introduced lysine (biotin-Lys) before the recognition unit): KRASSRPRPDDLEI
The experiment in a line: pull-down; biotin-modified peptide P1 incubated in lysates of ZO-1-transfected HEK293 cells at room temperature for 4 h; captured on streptavidin beads; beads rinsed five times; immunoblot for ZO-1; only the target purified.

No constants are given. Whether binding was seen depends on the method and setting. Binding seen in cells or lysates may run through a third protein. Some binding calls cover weakened binding; strength is not graded here. For some assays here: Where a sequence is shown, tags or fusion partners need not be part of it.

For the substance “zonula occludens-1 (ZO-1) in the lysate of the GFP immunoprecipitation (from UniProt Q07157 1-1748)”, in experiment [1], the binding result is “binds”.
On to “zonula occludens-1 (ZO-1), overexpressed in HEK293 cells (from UniProt Q07157 1-1748)”, for which the binding result in experiment [2] is “binds”.
